HELM strings list residues between dots; [ac] is acetyl, [am] amide, other brackets name non-standard units.
Experiments:
[1] = general procedure: Fmoc solid-phase peptide synthesis; Phenethylamine-BAL-PS resin; details: whole synthesis, scale 0.100 mmol
[2] = general procedure: Fmoc solid-phase peptide synthesis; 2-chlorotrityl chloride-PS-resin (C-terminal acids); Fmoc Rink-Amide-AM-PS-resin (carboxamides); BAL-AM-PS-resin loaded; details: whole synthesis, scale 0.6 mmol

Substance	isolated mass [1] [mg]	isolated mass [2] [mg]
PEPTIDE1{[XpGlu].R.P.R.L.[dA].H.K.G.P.[XdNle].[XPea]}$$$$V2.0	37.0	–
PEPTIDE1{[XpGlu].R.P.R.L.[dA].H.K.G.P.[XdNle].[dA].[dF]}$$$$V2.0	–	538.7

Source: patent US10005829B2 (priority 2012, dated 2018)
